Assay results: PubChem BioAssay AID1688 (National Center for Advancing Translational Sciences (NCATS), 2009)
The whole screen tested about 220,000 compounds, of which about 2,400 (1.1%) were called active. The shares of active, inactive and inconclusive entries below differ from those in the screen. Calls follow the shape of the dose curve; as a rule, active = well fitted inhibition curve with a large enough effect; inconclusive = small, poorly fitted or top-dose-only effect, or effect the other way; inactive = no such curve, though single readings can be large or run the other way. Potencies beside an inconclusive call are fits to weak or partial responses and may not hold up.

Assay: qHTS Multiplex Assay to Identify Dual Action Probes in a Cell Model of Huntington: Aggregate Formation (GFP); also: nearly all actives have a fitted effect of over 60% in size
Conditions: PC12 HttQ103-GFP aggregates, Acumen cytometry, 40 h; activity change, negative = inhibition: at 46.1 µM (top of the series) unless noted
Summary of the method: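 Using laser scanning cytometry, GFP-positive aggregates were counted after lysis of PC12 cells induced with 100 nM tebufenozide to express HTT exon 1 Q103–GFP. Compounds were tested in titration.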
% is scaled to controls: 0 for no effect and ±100 for the full control effect; potency is read from the fitted curve at half-maximal effect.

| SMILES | Potency | activity change, negative = inhibition |
| --- | --- | --- |
| Cc1ccc(S(=O)(=O)N2CCCCC2C(=O)NCc2ccco2)cc1 (centres undefined) | inconclusive: 25.1 µM [activator, single point] |  |
| COc1ccc(C2=Nn3c(nnc3-c3ccncc3)SC2)cc1 | inconclusive: 1.26 µM [inhibitor, partial curve] |  |
| NCCc1cnc[nH]1 | inactive |  |
| C(=C\c1ccccc1)/CN1CCN(c2ncnc3c2oc2ccccc23)CC1 | active: 6.31 µM |  |
| O=C(CSc1ncn[nH]1)N1c2ccccc2Sc2ccccc21 | inconclusive: 5.62 µM [inhibitor, single point] |  |
| NS(=O)(=O)c1ccc(CCNC(=O)NC2(C(F)(F)F)Oc3ccccc3O2)cc1 | inconclusive: 3.16 µM [activator, single point] |  |
| Cc1cccc(NC(=S)NNc2ncc(C(F)(F)F)cc2Cl)c1 | inconclusive: 28.2 µM [inhibitor, single point] |  |
| COCCN(Cc1cc2cc3c(cc2nc1Cl)OCO3)C(=O)Nc1ccccc1OC | inconclusive: 15.8 µM [inhibitor, single point] |  |
| CCN1CCC2(CC1)N=C(c1ccc(F)cc1)C(=S)N2C(=O)c1ccc(C)cc1 | inconclusive: 3.16 µM [inhibitor, single point] |  |
| Cc1cccc(C)c1-n1nnnc1-c1cnccc1C(F)(F)F |  | inactive: 5.07% [at 9.22 µM] |
| NNC(=O)c1cc2c(N3CCC(Cc4ccccc4)CC3)ncnc2s1 | inconclusive: 11.2 µM [inhibitor, partial curve] |  |
| NC(=S)N/N=C/c1ccccc1O |  | inactive: -10.7% [at 9.22 µM] |
| O=C(Nc1ccc(CN2CCCCC2)cc1)c1cccc(Br)c1 | inconclusive: 3.55 µM [inhibitor, single point] |  |
| O=Nc1c2nc3ccccc3n(O)c-2c2ccccc12 | inconclusive: 10 µM [inhibitor, partial curve] |  |
| Cc1ccn(S(=O)(=O)c2ccc(C(C)(C)C)cc2)n1 | inconclusive: 11.2 µM [inhibitor, partial curve] |  |
| CCOC(=O)c1ccc(N2C(=O)CC(C(=O)OC)=C2C)cc1 | inconclusive: 5.62 µM [inhibitor, partial curve, poor fit] |  |
| Cn1c(N)c(C(=O)COC(=O)c2ccc(Cl)c(S(=O)(=O)N3CCCC3)c2)c(=O)n(C)c1=O |  | inactive: -26.5% [at 9.22 µM] |
| Cc1cc(Cl)cc(Cl)c1OCC(=O)NCc1ccco1 |  | inactive: 29.1% |
| Cc1ccc(O)c(C2=NCCNC(C(F)(F)C(F)F)=C2)c1 | inconclusive: 35.5 µM [inhibitor, single point] |  |
| COc1ccc(OC)c(NC(=O)C2CCN(c3cc(-c4ccccc4)nc4ncnn34)CC2)c1 |  | inactive: 11.1% |
| O=C(CN1CCN(c2ccc(Cl)cc2)CC1)Nc1cccc(F)c1 |  | inactive: 13.3% |
| N=C1S/C(=C\c2cn[nH]c2-c2ccc(F)cc2)C(=O)N1c1ccccc1F | inconclusive: 7.08 µM [inhibitor, full curve] |  |
| O=C(Nc1ccc(S(=O)(=O)N2CCCCC2c2cccnc2)cc1)c1ccccc1F (centres undefined) | inconclusive: 11.2 µM [inhibitor, single point] |  |

| SMILES | Potency | activity change, negative = inhibition |
| --- | --- | --- |
| CCc1ccc(NC2=NCC(c3ccccc3)S2)cc1 (centres undefined) | inconclusive: 11.2 µM [inhibitor, single point] |  |
| Cc1ccc(CNC(=O)C2CCCN(S(=O)(=O)c3c(C)noc3/C=C/N(C)C)C2)cc1 (centres undefined) |  | inactive: -0.885% [at 9.22 µM] |
| CC(=O)Nc1nc(COc2ccc3ccccc3c2)cs1 | inconclusive: 12.6 µM [inhibitor, single point] |  |
| O=S(=O)(c1cccc(S(=O)(=O)N2CCN(c3ncccn3)CC2)c1)N1CCOCC1 | inconclusive: 1.12 µM [inhibitor, full curve, poor fit] |  |
| N#Cc1c(NC(=O)c2ccccc2Cl)n(Cc2ccccc2)c2nc3ccccc3nc12 | inconclusive: 31.6 µM [inhibitor, single point] |  |
| O=C(N=Nc1c(O)[nH]c2ccc(Br)cc12)c1cc(-c2cccs2)nc2ccccc12 | inconclusive: 3.98 µM [activator, full curve, poor fit] |  |
| Cc1ccc(C(=O)NNC(=S)NC(=O)c2ccc(Cl)cc2Cl)cc1 | inconclusive: 14.1 µM [inhibitor, single point] |  |
| COc1ccccc1OCCSc1nc2ccc([N+](=O)[O-])cc2s1 | inconclusive: 20 µM [inhibitor, partial curve, poor fit] |  |
| COc1ccc(NC(=O)c2ccc(COc3ccccc3Br)o2)cc1OC | inconclusive: 35.5 µM [inhibitor, single point] |  |
| Cc1ccc(-c2nnn(CC(=O)NCCc3ccc4c(c3)OCO4)n2)cc1 | inconclusive: 22.4 µM [activator, single point] |  |
| NS(=O)(=O)c1ccc(Nc2ccc([N+](=O)[O-])c3nonc23)cc1 |  | inactive: -8.11% [at 9.22 µM] |
| Cc1ccc(-c2csc3nc[nH]c(=S)c23)cc1 | inconclusive: 5.62 µM [inhibitor, single point] |  |
| CCOc1cc(C(=O)Nc2cc(C)on2)cc(OCC)c1OCC | inconclusive: 10 µM [inhibitor, partial curve, poor fit] |  |
| Cc1ccc(CNc2cc(-c3nn4c(C)nnc4s3)ccc2C)s1 | inconclusive: 10 µM [activator, partial curve] |  |
| Cc1cccc(C(=O)NCC2CCCO2)c1 (centres undefined) |  | inactive: -27.2% |
| CCCCCOc1ccc(N2C(=O)CC(N(O)c3ccccc3)C2=O)cc1 (centres undefined) | inconclusive: 15.8 µM [activator, single point] |  |
| CCCCCCc1cc2cc(-c3nnc(-c4cc(OC)c(OC)c(OC)c4)o3)c(=O)oc2cc1O | active: 2.82 µM |  |
| CCCCC(=O)Nc1nnc(C2=COCCO2)o1 | inconclusive: 3.55 µM [activator, single point] |  |
| O=C(Nc1nnc(C2COc3ccccc3O2)o1)c1ccc(F)cc1 (centres undefined) | inconclusive: 11.2 µM [inhibitor, single point] |  |
| CC(=O)Nc1nnc(SCc2ccc(F)cc2)s1 | inconclusive: 5.62 µM [inhibitor, single point] |  |
| CCC(O)CNC(=O)NC(=C(Cl)Cl)c1ccc(C)c(F)c1 (centres undefined) | inconclusive: 1.26 µM [activator, partial curve] |  |
| Cc1ccc(O)c(N=Cc2ccc(C)s2)c1 | inconclusive: 35.5 µM [activator, single point] |  |
| O=C(Nc1ccccc1N1CCCC1)c1ccc(Br)o1 | inconclusive: 0.398 µM [activator, single point] |  |

| SMILES | Potency | activity change, negative = inhibition |
| --- | --- | --- |
| CCN1CCN(C(=S)c2ccc(O)cc2)CC1 |  | inactive: 10.7% [at 9.22 µM] |
| O=C1N2CCSC2=NC1(Nc1nccs1)C(F)(F)F (centres undefined) |  | inactive: -3.92% |
| O=S(=O)(N=S(N1CCCCC1)N1CCCCC1)c1ccccc1 | inconclusive: 1.58 µM [activator, partial curve] |  |
| Cc1cccc(COCC(Cc2ccccc2)N2CCN(C(=O)c3ccc(C(F)(F)F)cc3)CCC2=O)c1 (centres undefined) |  | inactive: -8.42% |
| CC(C)(C)NC(=O)Cn1c(SCC(=O)NC2CCCCC2)nc2ccccc21 |  | inactive: -2% |
| CN(C)c1ccc(/C=N\NC(=O)c2cccc3cc[nH]c23)cc1 |  | inactive: 14% [at 9.22 µM] |
| Cc1cc(C)cc(N(CC(=O)N2CC=C(c3ccccc3)CC2)S(=O)(=O)c2c(C)noc2C)c1 | inconclusive: 12.6 µM [inhibitor, single point] |  |
| COC(=O)c1c(C(=O)OC)c(-c2ccc(C)cc2)n2c1CCC2 | inconclusive: 35.5 µM [inhibitor, single point] |  |
| CC(=O)c1cccc(NC(=O)NNC(=O)c2ccc(Cl)cc2Cl)c1 | active: 11.2 µM |  |
| O=C(NCc1ccc2c(c1)OCO2)c1ccc2c(=O)n(C3CCCC3)c(=O)[nH]c2c1 | inconclusive: 22.4 µM [inhibitor, single point] |  |
| Oc1ccc2ccccc2c1C=Nc1ccc(N2CCOCC2)cc1 | inconclusive: 1.58 µM [activator, full curve, poor fit] |  |
| COc1ccc(C)cc1NC(=O)CN(Cc1nnc(-c2ccc(Cl)cc2)o1)C1CCCC1 | inconclusive: 12.6 µM [inhibitor, partial curve] |  |
| CCC(CC)NC(=O)c1ccc(Cl)cc1 | inconclusive: 2.51 µM [activator, partial curve] |  |
| COc1cc2nc(Cl)nc(N3CCN(C)CC3)c2cc1OC |  | inactive: 3.7% |
| CCOc1ccc2nc(SC3CC(=O)N(c4ccccc4)C3=O)sc2c1 (centres undefined) | inconclusive: 35.5 µM [inhibitor, single point] |  |
| CCn1cc(C(=O)N2CCN(c3cccc(C)c3C)CC2)c(=O)c2ccc(C)nc21 |  | inactive: 28.8% [at 9.22 µM] |
| NC(=O)c1cccc(-c2cc(Nc3ccc(OC(F)(F)F)cc3)ncn2)c1 |  | inactive: -3.24% [at 9.22 µM] |
| CCOC(=O)c1nnn(CC(=O)Nc2ccccc2OC)c1C(=O)OCC |  | inactive: -7.02% |
| CC(C(=O)O)n1c(-c2ccn[nH]2)n[nH]c1=S (centres undefined) |  | inactive: -4.39% [at 9.22 µM] |
| CC(NC(=O)C1CCCCC1)c1ccc2c(c1)OCCO2 (centres undefined) | inconclusive: 1 µM [inhibitor, full curve] |  |
| COc1ccnc(N=CNOCc2ccc(F)cc2Cl)c1C#N | inconclusive: 0.562 µM [inhibitor, partial curve, poor fit] |  |
| COc1ccc(C(C)=O)cc1COc1ccc(F)cc1 |  | inactive: 7.86% [at 9.22 µM] |
| CCOc1ccc(-c2cc(CCCC(=O)NCc3ccco3)no2)cc1 | inconclusive: 3.55 µM [activator, partial curve] |  |

Entries listed so far containing an aryl thioether with sulfur outside any ring:

| SMILES | Potency | activity change, negative = inhibition |
| --- | --- | --- |
| O=C(CSc1ncn[nH]1)N1c2ccccc2Sc2ccccc21 | inconclusive: 5.62 µM [inhibitor, single point] |  |
| COc1ccccc1OCCSc1nc2ccc([N+](=O)[O-])cc2s1 | inconclusive: 20 µM [inhibitor, partial curve, poor fit] |  |
| CC(=O)Nc1nnc(SCc2ccc(F)cc2)s1 | inconclusive: 5.62 µM [inhibitor, single point] |  |
| CC(C)(C)NC(=O)Cn1c(SCC(=O)NC2CCCCC2)nc2ccccc21 |  | inactive: -2% |
| CCOc1ccc2nc(SC3CC(=O)N(c4ccccc4)C3=O)sc2c1 (centres undefined) | inconclusive: 35.5 µM [inhibitor, single point] |  |
